According to the supplement of paper PMC11006884:
Shown are results outside the selection of targets with a hit, which stands elsewhere. The data scatter; read single values as rough. The list shows a part of the results, in another mix than the full data.

By UniProt entry, the sequences of proteins in these tests, tags left out. Where a name states a change or a piece, a line headed by the entry shows the natural chain unless it says otherwise.
UniProt P22830: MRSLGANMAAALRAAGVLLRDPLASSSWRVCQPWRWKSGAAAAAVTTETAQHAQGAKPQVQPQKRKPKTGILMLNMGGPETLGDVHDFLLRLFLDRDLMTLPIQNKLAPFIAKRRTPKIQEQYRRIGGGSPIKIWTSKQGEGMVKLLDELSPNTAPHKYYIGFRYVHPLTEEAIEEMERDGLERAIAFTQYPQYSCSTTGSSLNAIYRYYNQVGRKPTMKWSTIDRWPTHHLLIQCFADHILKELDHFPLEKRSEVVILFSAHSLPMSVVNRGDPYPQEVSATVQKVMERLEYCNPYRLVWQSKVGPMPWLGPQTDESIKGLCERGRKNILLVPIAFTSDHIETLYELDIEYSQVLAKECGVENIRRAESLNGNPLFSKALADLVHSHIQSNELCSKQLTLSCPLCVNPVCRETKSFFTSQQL
UniProt P28340: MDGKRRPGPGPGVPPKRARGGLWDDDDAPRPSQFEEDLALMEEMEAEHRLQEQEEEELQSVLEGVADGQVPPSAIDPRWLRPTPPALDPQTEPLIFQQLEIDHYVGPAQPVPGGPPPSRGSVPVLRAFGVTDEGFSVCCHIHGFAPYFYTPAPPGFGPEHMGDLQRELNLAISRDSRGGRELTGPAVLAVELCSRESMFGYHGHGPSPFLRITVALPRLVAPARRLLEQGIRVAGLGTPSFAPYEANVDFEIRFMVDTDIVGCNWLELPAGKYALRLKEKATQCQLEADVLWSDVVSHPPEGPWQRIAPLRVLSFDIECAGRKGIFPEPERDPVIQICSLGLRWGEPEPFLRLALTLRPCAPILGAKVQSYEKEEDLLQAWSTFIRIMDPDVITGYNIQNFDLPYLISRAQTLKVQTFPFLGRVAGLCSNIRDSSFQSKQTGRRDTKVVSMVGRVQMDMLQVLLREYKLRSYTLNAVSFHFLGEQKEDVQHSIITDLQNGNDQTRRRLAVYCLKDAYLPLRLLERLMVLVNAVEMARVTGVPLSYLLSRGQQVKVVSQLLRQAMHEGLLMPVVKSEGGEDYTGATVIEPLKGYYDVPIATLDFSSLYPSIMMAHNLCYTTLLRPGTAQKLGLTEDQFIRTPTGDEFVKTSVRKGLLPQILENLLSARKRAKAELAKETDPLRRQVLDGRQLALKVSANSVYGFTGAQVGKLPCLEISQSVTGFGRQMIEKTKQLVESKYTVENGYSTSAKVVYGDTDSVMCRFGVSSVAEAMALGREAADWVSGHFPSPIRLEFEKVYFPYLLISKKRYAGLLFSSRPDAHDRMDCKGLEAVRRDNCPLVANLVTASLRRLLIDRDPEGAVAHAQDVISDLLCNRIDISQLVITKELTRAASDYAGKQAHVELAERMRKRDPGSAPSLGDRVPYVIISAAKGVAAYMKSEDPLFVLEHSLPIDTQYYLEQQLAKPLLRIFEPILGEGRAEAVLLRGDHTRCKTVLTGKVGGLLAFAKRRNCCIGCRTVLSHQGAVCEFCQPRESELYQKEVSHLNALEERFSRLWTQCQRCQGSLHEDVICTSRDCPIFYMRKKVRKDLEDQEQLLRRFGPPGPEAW
UniProt P18754: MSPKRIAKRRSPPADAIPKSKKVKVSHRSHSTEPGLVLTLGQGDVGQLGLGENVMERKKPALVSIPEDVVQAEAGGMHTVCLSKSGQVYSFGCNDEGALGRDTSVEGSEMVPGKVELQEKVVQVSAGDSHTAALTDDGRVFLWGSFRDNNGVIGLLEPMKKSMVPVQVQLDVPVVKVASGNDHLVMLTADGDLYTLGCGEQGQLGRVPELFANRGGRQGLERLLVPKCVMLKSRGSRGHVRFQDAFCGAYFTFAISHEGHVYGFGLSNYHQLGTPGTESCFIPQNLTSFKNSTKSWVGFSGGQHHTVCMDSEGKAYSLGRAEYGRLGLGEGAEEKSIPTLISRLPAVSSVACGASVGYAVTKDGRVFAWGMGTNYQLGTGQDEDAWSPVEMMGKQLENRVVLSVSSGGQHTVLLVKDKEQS
UniProt P20839, whole entry, looked up: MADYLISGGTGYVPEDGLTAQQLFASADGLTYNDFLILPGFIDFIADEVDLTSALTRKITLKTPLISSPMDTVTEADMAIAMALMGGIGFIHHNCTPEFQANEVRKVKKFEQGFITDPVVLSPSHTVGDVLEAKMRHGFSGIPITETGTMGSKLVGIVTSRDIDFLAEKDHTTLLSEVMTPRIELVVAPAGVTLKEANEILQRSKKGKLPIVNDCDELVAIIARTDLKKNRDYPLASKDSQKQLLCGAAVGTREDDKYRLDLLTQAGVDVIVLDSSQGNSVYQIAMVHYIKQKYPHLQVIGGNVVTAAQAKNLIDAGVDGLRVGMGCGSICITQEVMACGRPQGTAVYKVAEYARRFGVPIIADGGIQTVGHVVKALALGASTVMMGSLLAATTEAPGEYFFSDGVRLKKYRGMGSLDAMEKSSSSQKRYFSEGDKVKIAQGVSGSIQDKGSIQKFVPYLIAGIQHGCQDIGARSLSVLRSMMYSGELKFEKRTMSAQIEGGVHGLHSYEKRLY
UniProt P23368: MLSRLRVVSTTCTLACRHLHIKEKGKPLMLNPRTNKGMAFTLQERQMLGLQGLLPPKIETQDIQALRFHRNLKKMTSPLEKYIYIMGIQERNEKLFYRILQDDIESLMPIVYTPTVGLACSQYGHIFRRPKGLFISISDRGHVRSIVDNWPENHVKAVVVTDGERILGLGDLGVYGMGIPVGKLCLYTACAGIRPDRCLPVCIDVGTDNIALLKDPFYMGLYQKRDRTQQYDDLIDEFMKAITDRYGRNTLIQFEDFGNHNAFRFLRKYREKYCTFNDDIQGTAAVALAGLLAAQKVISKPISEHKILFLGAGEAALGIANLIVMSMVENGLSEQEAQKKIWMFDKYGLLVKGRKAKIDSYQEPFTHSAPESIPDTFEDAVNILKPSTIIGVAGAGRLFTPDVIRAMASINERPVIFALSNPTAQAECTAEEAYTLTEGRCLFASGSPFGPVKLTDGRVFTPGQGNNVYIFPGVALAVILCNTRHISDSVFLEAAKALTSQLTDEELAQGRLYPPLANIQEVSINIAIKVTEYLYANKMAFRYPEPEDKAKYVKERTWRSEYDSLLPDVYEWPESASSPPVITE
UniProt P27797, whole entry: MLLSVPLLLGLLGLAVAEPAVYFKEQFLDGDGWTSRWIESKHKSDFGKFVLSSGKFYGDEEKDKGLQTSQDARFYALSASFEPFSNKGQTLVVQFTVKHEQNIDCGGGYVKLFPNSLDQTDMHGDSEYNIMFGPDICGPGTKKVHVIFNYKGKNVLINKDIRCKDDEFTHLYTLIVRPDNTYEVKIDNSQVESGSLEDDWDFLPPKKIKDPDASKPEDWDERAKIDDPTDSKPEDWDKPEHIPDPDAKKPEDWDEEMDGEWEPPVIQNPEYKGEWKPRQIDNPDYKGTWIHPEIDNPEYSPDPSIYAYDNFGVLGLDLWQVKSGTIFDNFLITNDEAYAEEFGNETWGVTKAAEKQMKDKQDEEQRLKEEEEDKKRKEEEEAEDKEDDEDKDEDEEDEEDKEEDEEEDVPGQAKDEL
UniProt P26358: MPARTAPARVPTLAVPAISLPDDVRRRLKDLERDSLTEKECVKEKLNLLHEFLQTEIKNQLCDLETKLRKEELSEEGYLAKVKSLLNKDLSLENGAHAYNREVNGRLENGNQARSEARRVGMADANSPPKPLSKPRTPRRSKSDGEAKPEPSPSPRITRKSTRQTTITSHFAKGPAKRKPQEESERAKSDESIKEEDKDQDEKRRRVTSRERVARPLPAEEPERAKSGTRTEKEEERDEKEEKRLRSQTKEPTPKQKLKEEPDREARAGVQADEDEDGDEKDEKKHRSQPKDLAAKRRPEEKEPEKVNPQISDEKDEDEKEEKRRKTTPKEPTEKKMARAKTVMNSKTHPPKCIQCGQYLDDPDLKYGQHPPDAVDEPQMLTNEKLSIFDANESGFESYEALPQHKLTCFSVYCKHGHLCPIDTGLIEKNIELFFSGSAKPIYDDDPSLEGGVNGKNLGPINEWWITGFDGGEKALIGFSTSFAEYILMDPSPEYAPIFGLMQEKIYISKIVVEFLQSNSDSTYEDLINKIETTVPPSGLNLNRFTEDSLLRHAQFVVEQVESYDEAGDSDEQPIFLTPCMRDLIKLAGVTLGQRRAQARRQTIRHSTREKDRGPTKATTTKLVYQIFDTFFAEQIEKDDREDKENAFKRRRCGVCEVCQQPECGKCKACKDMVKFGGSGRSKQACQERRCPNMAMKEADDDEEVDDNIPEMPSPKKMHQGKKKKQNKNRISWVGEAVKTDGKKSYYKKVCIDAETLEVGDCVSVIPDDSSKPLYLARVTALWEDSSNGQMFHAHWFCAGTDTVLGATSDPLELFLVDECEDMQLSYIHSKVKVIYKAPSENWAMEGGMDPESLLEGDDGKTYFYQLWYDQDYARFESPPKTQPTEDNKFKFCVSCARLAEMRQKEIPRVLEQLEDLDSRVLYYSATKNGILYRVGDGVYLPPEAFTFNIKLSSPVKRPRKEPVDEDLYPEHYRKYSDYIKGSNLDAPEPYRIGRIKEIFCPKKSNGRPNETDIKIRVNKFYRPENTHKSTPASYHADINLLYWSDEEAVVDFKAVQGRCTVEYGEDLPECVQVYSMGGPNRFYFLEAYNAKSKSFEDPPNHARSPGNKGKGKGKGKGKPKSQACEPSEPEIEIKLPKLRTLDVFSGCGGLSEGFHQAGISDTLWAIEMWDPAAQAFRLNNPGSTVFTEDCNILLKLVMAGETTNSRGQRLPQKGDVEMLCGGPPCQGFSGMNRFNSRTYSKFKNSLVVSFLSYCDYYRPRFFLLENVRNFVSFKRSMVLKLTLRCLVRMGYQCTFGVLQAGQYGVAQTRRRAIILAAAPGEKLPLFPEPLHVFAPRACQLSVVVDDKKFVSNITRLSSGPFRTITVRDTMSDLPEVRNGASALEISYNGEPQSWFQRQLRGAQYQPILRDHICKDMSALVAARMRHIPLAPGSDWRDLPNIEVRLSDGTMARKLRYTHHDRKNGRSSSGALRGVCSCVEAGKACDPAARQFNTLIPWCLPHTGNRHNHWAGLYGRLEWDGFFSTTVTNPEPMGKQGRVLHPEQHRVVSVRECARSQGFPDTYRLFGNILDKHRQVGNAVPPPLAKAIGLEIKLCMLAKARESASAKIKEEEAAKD
UniProt P18085: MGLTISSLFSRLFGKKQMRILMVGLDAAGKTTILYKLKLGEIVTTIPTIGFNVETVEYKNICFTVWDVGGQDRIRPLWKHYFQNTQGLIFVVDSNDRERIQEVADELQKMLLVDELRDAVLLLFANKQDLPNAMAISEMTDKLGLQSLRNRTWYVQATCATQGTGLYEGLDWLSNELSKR
UniProt P29218: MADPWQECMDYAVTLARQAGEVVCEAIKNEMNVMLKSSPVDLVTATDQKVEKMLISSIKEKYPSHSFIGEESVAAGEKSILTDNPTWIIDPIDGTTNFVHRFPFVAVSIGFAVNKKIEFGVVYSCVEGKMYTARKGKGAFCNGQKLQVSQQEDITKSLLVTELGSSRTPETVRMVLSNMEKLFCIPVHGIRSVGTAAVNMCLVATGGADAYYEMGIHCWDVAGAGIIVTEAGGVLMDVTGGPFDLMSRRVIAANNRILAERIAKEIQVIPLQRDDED
UniProt P28288: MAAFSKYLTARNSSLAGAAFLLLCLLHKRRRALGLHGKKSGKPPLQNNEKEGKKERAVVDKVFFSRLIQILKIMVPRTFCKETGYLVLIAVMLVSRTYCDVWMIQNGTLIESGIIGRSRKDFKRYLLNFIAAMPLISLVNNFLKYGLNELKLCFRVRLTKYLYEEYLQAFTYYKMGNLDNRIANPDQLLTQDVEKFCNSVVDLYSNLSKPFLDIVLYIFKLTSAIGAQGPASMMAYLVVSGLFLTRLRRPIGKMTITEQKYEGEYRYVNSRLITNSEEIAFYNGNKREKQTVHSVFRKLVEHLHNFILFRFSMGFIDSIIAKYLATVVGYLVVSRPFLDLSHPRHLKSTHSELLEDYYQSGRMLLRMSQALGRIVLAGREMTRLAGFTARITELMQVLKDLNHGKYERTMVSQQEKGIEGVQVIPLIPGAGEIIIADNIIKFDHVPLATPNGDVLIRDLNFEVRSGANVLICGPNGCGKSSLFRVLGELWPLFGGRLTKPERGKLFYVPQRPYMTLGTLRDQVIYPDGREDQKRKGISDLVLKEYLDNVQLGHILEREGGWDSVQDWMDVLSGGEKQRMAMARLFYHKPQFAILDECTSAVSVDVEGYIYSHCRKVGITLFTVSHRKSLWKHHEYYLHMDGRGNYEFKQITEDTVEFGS
UniProt P21964: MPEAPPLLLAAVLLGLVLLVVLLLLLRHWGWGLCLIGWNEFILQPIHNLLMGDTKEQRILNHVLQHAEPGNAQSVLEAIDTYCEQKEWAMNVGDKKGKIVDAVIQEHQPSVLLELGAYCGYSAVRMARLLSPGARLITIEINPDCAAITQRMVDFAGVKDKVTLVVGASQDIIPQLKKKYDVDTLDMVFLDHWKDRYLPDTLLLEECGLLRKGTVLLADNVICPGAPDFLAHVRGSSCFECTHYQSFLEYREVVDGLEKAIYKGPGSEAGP

Compound: COC(=O)/C=C/c1ccccc1 [methyl cinnamate]
Test: log2 ratio of iodoacetamide-alkyne labeling of the cysteine site, DMSO over compound (competition); higher = stronger covalent engagement of the cysteine by the compound, active = 1 or more
Details: 500 µM; treatment time 1 h; system: HEK293T cell lysate
In short: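 HEK293T lysate (2 mg/mL) was incubated with electrophile (500 µM) or vehicle for 1 h at ambient temperature and then with iodoacetamide alkyne for 1 h. Labelled proteins were clicked to sCIP-TMT reagents, pooled, digested, enriched on streptavidin and measured by Orbitrap Eclipse LC-MS/MS with FAIMS, with FragPipe quantification. The per-cysteine log2 competition ratio is mean control-channel reporter intensity over mean compound-channel reporter intensity. Across three replicates with duplicate channels, cysteines quantified in only one replicate were excluded.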

log2 ratio of iodoacetamide-alkyne labeling, inactive:
PML C60 (UniProt P29590) 0.173
RPL12 C141 (UniProt P30050) 0.0667
TUBG1 C201 (UniProt P23258) 0.114
FLNA C53 (UniProt P21333) 0.249
CFL1 C147 (UniProt P23528) 0.116
GART C298 (UniProt P22102) -0.13
ARNT C380 (UniProt P27540) 0.122
FECH C395 (UniProt P22830) 0.267
UniProt P26639_C107 -0.497
EEF1G C68 (UniProt P26641) 0.14
PGAM1 C153 (UniProt P18669) 0.101
POLD1 C428 (UniProt P28340) 0.216
YWHAQ C25 (UniProt P27348) 0.0798
RCC1 C198 (UniProt P18754) 0.0456
IMPDH1 C215 (UniProt P20839) 0.2
SCP2 C495 (UniProt P22307) -0.08
PML C57 (UniProt P29590) 0.173
ME2 C120 (UniProt P23368) -0.0548
CALR C163 (UniProt P27797) 0.0358
DNMT1 C62 (UniProt P26358) 0.136
LAP3 C313 (UniProt P28838) 0.374
UniProt P28482_C166 0.177
UniProt P25398_C50 0.0589
ARF4 C62 (UniProt P18085) -0.0182
FLNA C796 (UniProt P21333) -0.207
IMPA1 C24 (UniProt P29218) 0.116
ABCD3 C24 (UniProt P28288) -0.0367
ANXA7 C327 (UniProt P20073) 0.0817
PAICS C374 (UniProt P22234) -0.29
MCM3 C360 (UniProt P25205) 0.128
RPS3 C97 (UniProt P23396) 0.505
TCP1 C397 (UniProt P17987) -0.0197
U2AF2 C429 (UniProt P26368) 0.132
COMT C241 (UniProt P21964) 0.0166
PSMA4 C163 (UniProt P25789) 0.196
ARF4 C159 (UniProt P18085) 0.0458
PRDX5 C204 (UniProt P30044) -0.0349

Nothing new here: entries from further up.
log2 ratio of iodoacetamide-alkyne labeling, inactive:
IMPA1 C24 (UniProt P29218) 0.116
ABCD3 C24 (UniProt P28288) -0.0367
